Results are given in words; binding and its absence hold for the method and conditions named. Binding seen in cells or lysates may run through a third protein.
Tests used:
Experiment in all cases: co-IP; FLAG-IP (anti-FLAG M2 affinity gel, 3 h, 4 °C) of lysates of transfected HEK293A cells; lysis buffer 50 mM Tris-HCl pH 7.4, 150 mM NaCl, 0.5% TritonX-100, 10% glycerol; Western blotting for DHX30; in one panel 10 μg/ml RNase A was added to the cleared lysates (interaction decreased)
[1] = target: TDP-43-FLAG mNLS (R82L/K83Q)
[2] = target: TDP-43-FLAG WT (TAR DNA-binding protein 43)
[3] = target: TDP-43-FLAG mNLS/mRRM (C173S/C175S)
[4] = target: TDP-43-FLAG Q331K

Measured: binding

B1: DHX30, ATP-dependent RNA helicase (endogenous, HEK293A) (protein, UniProt Q7L2E3 1-1194)
chain: MFSLDSFRKDRAQHRQRQCKLPPPRLPPMCVNPTPGGTISRASRDLLKEFPQPKNLLNSVIGRALGISHAKDKLVYVHTNGPKKKKVTLHIKWPKSVEVEGYGSKKIDAERQAAAAACQLFKGWGLLGPRNELFDAAKYRVLADRFGSPADSWWRPEPTMPPTSWRQLNPESIRPGGPGGLSRSLGREEEEDEEEELEEGTIDVTDFLSMTQQDSHAPLRDSRGSSFEMTDDDSAIRALTQFPLPKNLLAKVIQIATSSSTAKNLMQFHTVGTKTKLSTLTLLWPCPMTFVAKGRRKAEAENKAAALACKKLKSLGLVDRNNEPLTHAMYNLASLRELGETQRRPCTIQVPEPILRKIETFLNHYPVESSWIAPELRLQSDDILPLGKDSGPLSDPITGKPYVPLLEAEEVRLSQSLLELWRRRGPVWQEAPQLPVDPHRDTILNAIEQHPVVVISGDTGCGKTTRIPQLLLERYVTEGRGARCNVIITQPRRISAVSVAQRVSHELGPSLRRNVGFQVRLESKPPSRGGALLFCTVGILLRKLQSNPSLEGVSHVIVDEVHERDVNTDFLLILLKGLQRLNPALRLVLMSATGDNERFSRYFGGCPVIKVPGFMYPVKEHYLEDILAKLGKHQYLHRHRHHESEDECALDLDLVTDLVLHIDARGEPGGILCFLPGWQEIKGVQQRLQEALGMHESKYLILPVHSNIPMMDQKAIFQQPPVGVRKIVLATNIAETSITINDIVHVVDSGLHKEERYDLKTKVSCLETVWVSRANVIQRRGRAGRCQSGFAYHLFPRSRLEKMVPFQVPEILRTPLENLVLQAKIHMPEKTAVEFLSKAVDSPNIKAVDEAVILLQEIGVLDQREYLTTLGQRLAHISTDPRLAKAIVLAAIFRCLHPLLVVVSCLTRDPFSSSLQNRAEVDKVKALLSHDSGSDHLAFVRAVAGWEEVLRWQDRSSRENYLEENLLYAPSLRFIHGLIKQFSENIYEAFLVGKPSDCTLASAQCNEYSEEEELVKGVLMAGLYPNLIQVRQGKVTRQGKFKPNSVTYRTKSGNILLHKSTINREATRLRSRWLTYFMAVKSNGSVFVRDSSQVHPLAVLLLTDGDVHIRDDGRRATISLSDSDLLRLEGDSRTVRLLKELRRALGRMVERSLRSELAALPPSVQEEHGQLLALLAELLRGPCGSFDVRKTADD
no binding: all assays above

From paper PMC9512926
